Patent publication US20120276102A1
Results are given in words; binding and its absence hold for the method and conditions named. Some results given as binding are weak or reduced against the parent protein; the word gives no strength.

Sequences of proteins named here, by UniProt entry; tags and fusion partners are left off. A change or cut given only in a name is not applied to a line headed by its entry. A line that says so, or that is headed by a name, gives the form on record, which may keep a tag or linker.
UniProt Q9HBE5: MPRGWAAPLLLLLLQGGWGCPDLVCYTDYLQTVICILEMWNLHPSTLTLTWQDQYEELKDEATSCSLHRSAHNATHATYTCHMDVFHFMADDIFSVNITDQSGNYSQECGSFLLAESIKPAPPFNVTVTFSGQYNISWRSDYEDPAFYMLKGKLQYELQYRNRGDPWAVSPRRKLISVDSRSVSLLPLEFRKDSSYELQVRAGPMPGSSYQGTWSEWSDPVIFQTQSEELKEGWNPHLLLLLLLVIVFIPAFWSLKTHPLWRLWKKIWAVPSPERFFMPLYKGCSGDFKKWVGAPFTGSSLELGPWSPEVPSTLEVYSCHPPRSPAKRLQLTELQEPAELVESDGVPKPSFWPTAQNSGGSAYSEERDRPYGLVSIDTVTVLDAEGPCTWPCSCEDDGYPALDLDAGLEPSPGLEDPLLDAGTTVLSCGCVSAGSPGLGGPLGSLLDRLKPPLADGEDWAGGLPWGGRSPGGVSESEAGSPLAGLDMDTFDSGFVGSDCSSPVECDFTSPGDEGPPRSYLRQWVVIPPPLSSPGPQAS
UniProt Q9JHX3: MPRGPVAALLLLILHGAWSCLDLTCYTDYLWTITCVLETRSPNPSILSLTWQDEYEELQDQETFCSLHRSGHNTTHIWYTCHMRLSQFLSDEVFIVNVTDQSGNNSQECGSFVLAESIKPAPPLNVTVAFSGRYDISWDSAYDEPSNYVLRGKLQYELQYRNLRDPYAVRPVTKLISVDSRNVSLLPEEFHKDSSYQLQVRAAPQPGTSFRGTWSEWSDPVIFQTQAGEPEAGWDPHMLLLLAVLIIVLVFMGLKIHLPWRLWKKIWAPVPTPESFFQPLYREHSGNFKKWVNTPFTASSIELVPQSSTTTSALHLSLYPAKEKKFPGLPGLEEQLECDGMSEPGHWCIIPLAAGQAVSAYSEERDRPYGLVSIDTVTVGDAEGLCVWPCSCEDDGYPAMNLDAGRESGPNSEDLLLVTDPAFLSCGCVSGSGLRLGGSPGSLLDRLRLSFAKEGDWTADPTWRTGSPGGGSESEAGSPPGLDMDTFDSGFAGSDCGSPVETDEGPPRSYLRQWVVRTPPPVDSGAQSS
cynomolgus monkey IL-21R expressed on cells (G7Q0S8, form named): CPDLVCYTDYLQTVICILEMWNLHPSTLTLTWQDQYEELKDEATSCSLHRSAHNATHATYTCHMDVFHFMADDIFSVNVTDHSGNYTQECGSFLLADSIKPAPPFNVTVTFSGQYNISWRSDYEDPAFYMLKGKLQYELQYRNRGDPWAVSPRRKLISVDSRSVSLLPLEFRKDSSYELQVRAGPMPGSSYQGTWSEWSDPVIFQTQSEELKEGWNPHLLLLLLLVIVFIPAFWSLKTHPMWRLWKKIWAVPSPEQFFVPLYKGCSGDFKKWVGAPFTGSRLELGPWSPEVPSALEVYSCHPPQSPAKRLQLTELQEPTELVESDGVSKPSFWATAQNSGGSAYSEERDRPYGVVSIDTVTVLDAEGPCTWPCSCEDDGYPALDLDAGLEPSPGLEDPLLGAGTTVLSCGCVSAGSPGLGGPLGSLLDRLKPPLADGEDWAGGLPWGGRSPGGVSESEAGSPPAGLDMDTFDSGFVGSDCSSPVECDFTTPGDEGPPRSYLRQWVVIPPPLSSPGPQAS
cynomolgus monkey IL-21R-His/FLAG (G7Q0S8, form named): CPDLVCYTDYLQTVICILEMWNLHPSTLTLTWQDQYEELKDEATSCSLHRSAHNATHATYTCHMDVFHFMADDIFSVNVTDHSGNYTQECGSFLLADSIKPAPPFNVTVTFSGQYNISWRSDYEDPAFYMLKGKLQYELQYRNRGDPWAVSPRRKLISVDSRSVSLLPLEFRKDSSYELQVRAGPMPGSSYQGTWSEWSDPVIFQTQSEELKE

Columns and labels:
[1] = biological target: human IL-21R extracellular domain His-Flag fusion protein (human) (UniProt Q9HBE5); test: BIACORE: antibody captured on anti-human IgG; 0-100 nM human IL-21R-H/F injected
[2] = biological target: murine IL-21R-Fc (murine) (UniProt Q9JHX3); test: ELISA on mIL-21R-Fc captured by anti-mouse IgG2a, AbS added together with a fixed amount of mIL-21, AbS detected with anti-human Ig
[3] = biological target: murine IL-21R extracellular domain His-Flag fusion protein (murine) (UniProt Q9JHX3); test: BIACORE: antibody captured on anti-human IgG; 10-500 nM murine IL-21R-H/F injected
[4] = biological target: cynomolgus monkey IL-21R expressed on cells (cynomolgus monkey) (UniProt G7Q0S8); test: cell-based ELISA on CHO cells transiently expressing cynomolgus monkey IL-21R; HRP anti-human IgG, A450
[5] = biological target: murine IL-21R extracellular domain His-Flag fusion protein (murine) (UniProt Q9JHX3); test: BIACORE: AbS immobilized on the chip; murine IL-21R-H/F (100 nM) flowed over
[6] = biological target: murine IL-21R extracellular domain His-Flag fusion protein (murine) (UniProt Q9JHX3); test: SPR, antibody immobilized, 100 nM receptor
[7] = biological target: murine IL-21R extracellular domain His-Flag fusion protein (murine) (UniProt Q9JHX3); test: BIACORE: antibody captured on anti-human IgG; 50 nM murine IL-21R-H/F injected
[8] = biological target: murine IL-21R extracellular domain His-Flag fusion protein (murine) (UniProt Q9JHX3); test: SPR, Ab captured, 50 nM analyte
[9] = biological target: cynomolgus monkey IL-21R-His/FLAG (cynomolgus monkey) (UniProt G7Q0S8); test: BIACORE: antibody captured on anti-human IgG; varying concentrations of cynomolgus monkey IL-21R-His/FLAG injected
[10] = biological target: murine IL-21R-Fc (murine) (UniProt Q9JHX3); test: ELISA on mIL-21R-Fc captured by anti-mouse IgG2a; AbS detected with anti-human Ig antibody, in the presence of mIL-21
[11] = biological target: human IL-21R expressed on cells (human) (UniProt Q9HBE5); test: cell-based ELISA on CHO cells transiently expressing human IL-21R; HRP anti-human IgG, A450
[12] = biological target: human IL-21R extracellular domain His-Flag fusion protein (human) (UniProt Q9HBE5); test: BIACORE: antibody captured on anti-human IgG; varying concentrations of human IL-21R-His/FLAG injected
[13] = biological target: cynomolgus monkey IL-21R-His/FLAG (cynomolgus monkey) (UniProt G7Q0S8); test: SPR, Ab captured on anti-human IgG
[14] = biological target: human IL-21R extracellular domain His-Flag fusion protein (human) (UniProt Q9HBE5); test: SPR, Ab captured on anti-human IgG
[15] = biological target: human IL-21R extracellular domain His-Flag fusion protein (human) (UniProt Q9HBE5); test: SPR, antibody immobilized
[16] = biological target: murine IL-21R-Fc (murine) (UniProt Q9JHX3); test: blocking ELISA: rising AbS with a fixed amount of mIL-21 (the blocked ligand) on mIL-21R-Fc captured by anti-mouse IgG2a, mIL-21 detected with HRP anti-His6
[17] = biological target: cynomolgus monkey IL-21R expressed on cells (cynomolgus monkey) (UniProt G7Q0S8); test: cell ELISA, CHO cells
[18] = biological target: human IL-21R expressed on cells (human) (UniProt Q9HBE5); test: cell ELISA, CHO cells
[19] = biological target: human IL-21R extracellular domain His-Flag fusion protein (human) (UniProt Q9HBE5); test: BIACORE: AbT immobilized on the chip (as printed on the sheet); human IL-21R-H/F flowed over
[20] = biological target: murine IL-21R extracellular domain His-Flag fusion protein (murine) (UniProt Q9JHX3); test: ELISA: biotinylated mIL-21R-His/FLAG captured on plate-bound AbT, vehicle instead of mIL-21, HRP-streptavidin, A450

Measured: binding

B1: AbS (antibody, V domains shown)
VH: QVQLQESGPGLVKPSETLSLTCAVSGYSISSGYYWGWIRQPPGKGLEWIGSISHTGNTYYNPPLKSRVTISVDTSKNQFSLKLSSVTAADTAVYYCARGGGISRPEYWGQGTLVTVSS
VL: SSELTQDPAVSVALGQTVRITCQGDSLRTYYASWYQQKPGQAPVLVIYGKHKRPSGIPDRFSGSSSGNTASLTITGAQAEDEADYYCMSRSIWGNPHVLFGGGTQLTVL
not listed: [19] | [20]
binds: all other assays above

B2: AbT (antibody, human IgG1, V domains shown)
VH: QVQLQESGPGLVKPSETLSLTCAVSGYSISSGYYWGWIRQPPGKGLEWIGSISHTGNTYYNPPLKSRVTISVDTSKNQFSLKLSSVTAADTAVYYCARGGGISRPEYWGQGTLVTVSS
VL: SSELTQDPAVSVALGQTVRITCQGDSLRTYYASWYQQKPGQAPVLVIYGKHKRPSGIPDRFSGSSSGNTASLTITGAQAEDEADYYCVARSNKGNPHVLFGGGTQLTVL
not listed: [2] | [5] | [10] | [16]
binds: all other assays above
